According to the supplement of paper PMC11546906:
Where a name gives a salt, the structure may show the parent alone. The list shows a part of the results. This data set is noisy: repeats of one test often differ as much as different tests do.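 FDA-approved drugs were each paired with colistin at one-eighth its MIC and screened against a multidrug-resistant, mcr-1-positive clinical E. coli isolate, with OD600 read after 24 h. Drug-free bacteria served as growth control, plain broth as blank. Combinations were active if OD600 dropped below 0.2.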

system: Escherichia coli 42 (mcr-1-positive clinical isolate); assay: OD600 after 24 h growth with compound plus colistin (absorbance units (OD600)); higher = more bacterial growth (less inhibition); settings: first compound 25 µM; colistin concentration 0.5 ug/mL; incubation time 24 h; 37 °C

OD600, inactive:
CCCCc1ncc(/C=C(\Cc2cccs2)C(=O)O)n1Cc1ccc(C(=O)O)cc1 [Eprosartan Mesylate] + CCC(C)CCCC(=O)N[C@@H](CCN)C(=O)N[C@H](C(=O)N[C@@H](CCN)C(=O)N[C@H]1CCNC(=O)[C@H]([C@@H](C)O)NC(=O)[C@H](CCN)NC(=O)[C@H](CCN)NC(=O)[C@H](CC(C)C)NC(=O)[C@@H](CC(C)C)NC(=O)[C@H](CCN)NC1=O)[C@@H](C)O [colistin] 1.08
CN(C)c1cc(CNCC(C)(C)C)c(O)c2c1C[C@H]1C[C@H]3[C@H](N(C)C)C(=O)C(C(N)=O)=C(O)[C@@]3(O)C(=O)C1=C2O [Omadacycline] + CCC(C)CCCC(=O)N[C@@H](CCN)C(=O)N[C@H](C(=O)N[C@@H](CCN)C(=O)N[C@H]1CCNC(=O)[C@H]([C@@H](C)O)NC(=O)[C@H](CCN)NC(=O)[C@H](CCN)NC(=O)[C@H](CC(C)C)NC(=O)[C@@H](CC(C)C)NC(=O)[C@H](CCN)NC1=O)[C@@H](C)O [colistin] 1.08
CC1(C)O[C@@H]2[C@@H](CO[C@@]3(COS(N)(=O)=O)OC(C)(C)O[C@@H]23)O1 [Topiramate] + CCC(C)CCCC(=O)N[C@@H](CCN)C(=O)N[C@H](C(=O)N[C@@H](CCN)C(=O)N[C@H]1CCNC(=O)[C@H]([C@@H](C)O)NC(=O)[C@H](CCN)NC(=O)[C@H](CCN)NC(=O)[C@H](CC(C)C)NC(=O)[C@@H](CC(C)C)NC(=O)[C@H](CCN)NC1=O)[C@@H](C)O [colistin] 1.09
Cn1c(=O)cc(N2CCC[C@@H](N)C2)n(Cc2ccccc2C#N)c1=O [Alogliptin Benzoate] + CCC(C)CCCC(=O)N[C@@H](CCN)C(=O)N[C@H](C(=O)N[C@@H](CCN)C(=O)N[C@H]1CCNC(=O)[C@H]([C@@H](C)O)NC(=O)[C@H](CCN)NC(=O)[C@H](CCN)NC(=O)[C@H](CC(C)C)NC(=O)[C@@H](CC(C)C)NC(=O)[C@H](CCN)NC1=O)[C@@H](C)O [colistin] 0.9
Cc1nc2n(c(=O)c1CCN1CCC(c3noc4cc(F)ccc34)CC1)CCCC2O (centres undefined) [Paliperidone] + CCC(C)CCCC(=O)N[C@@H](CCN)C(=O)N[C@H](C(=O)N[C@@H](CCN)C(=O)N[C@H]1CCNC(=O)[C@H]([C@@H](C)O)NC(=O)[C@H](CCN)NC(=O)[C@H](CCN)NC(=O)[C@H](CC(C)C)NC(=O)[C@@H](CC(C)C)NC(=O)[C@H](CCN)NC1=O)[C@@H](C)O [colistin] 1.13
CCC(C)(C)C(=O)O[C@H]1C[C@@H](C)C=C2C=C[C@H](C)[C@H](CC[C@@H]3C[C@@H](O)CC(=O)O3)[C@H]21 [Simvastatin] + CCC(C)CCCC(=O)N[C@@H](CCN)C(=O)N[C@H](C(=O)N[C@@H](CCN)C(=O)N[C@H]1CCNC(=O)[C@H]([C@@H](C)O)NC(=O)[C@H](CCN)NC(=O)[C@H](CCN)NC(=O)[C@H](CC(C)C)NC(=O)[C@@H](CC(C)C)NC(=O)[C@H](CCN)NC1=O)[C@@H](C)O [colistin] 0.779
COC(=O)C1=C(C)NC(C)=C(C(=O)OC(C)C)C1c1cccc2nonc12 (centres undefined) [Isradipine] + CCC(C)CCCC(=O)N[C@@H](CCN)C(=O)N[C@H](C(=O)N[C@@H](CCN)C(=O)N[C@H]1CCNC(=O)[C@H]([C@@H](C)O)NC(=O)[C@H](CCN)NC(=O)[C@H](CCN)NC(=O)[C@H](CC(C)C)NC(=O)[C@@H](CC(C)C)NC(=O)[C@H](CCN)NC1=O)[C@@H](C)O [colistin] 1.08
CC1=C(C(=O)O)N2C(=O)[C@@H](NC(=O)[C@H](N)c3ccc(O)cc3)[C@H]2SC1 [Cefadroxil] + CCC(C)CCCC(=O)N[C@@H](CCN)C(=O)N[C@H](C(=O)N[C@@H](CCN)C(=O)N[C@H]1CCNC(=O)[C@H]([C@@H](C)O)NC(=O)[C@H](CCN)NC(=O)[C@H](CCN)NC(=O)[C@H](CC(C)C)NC(=O)[C@@H](CC(C)C)NC(=O)[C@H](CCN)NC1=O)[C@@H](C)O [colistin] 0.958
C[C@@H](c1ncncc1F)[C@](O)(Cn1cncn1)c1ccc(F)cc1F [Voriconazole] + CCC(C)CCCC(=O)N[C@@H](CCN)C(=O)N[C@H](C(=O)N[C@@H](CCN)C(=O)N[C@H]1CCNC(=O)[C@H]([C@@H](C)O)NC(=O)[C@H](CCN)NC(=O)[C@H](CCN)NC(=O)[C@H](CC(C)C)NC(=O)[C@@H](CC(C)C)NC(=O)[C@H](CCN)NC1=O)[C@@H](C)O [colistin] 1.04

Fetched one by one from the entries so far:
OD600, inactive:
Cc1nc2n(c(=O)c1CCN1CCC(c3noc4cc(F)ccc34)CC1)CCCC2O (centres undefined) [Paliperidone] + CCC(C)CCCC(=O)N[C@@H](CCN)C(=O)N[C@H](C(=O)N[C@@H](CCN)C(=O)N[C@H]1CCNC(=O)[C@H]([C@@H](C)O)NC(=O)[C@H](CCN)NC(=O)[C@H](CCN)NC(=O)[C@H](CC(C)C)NC(=O)[C@@H](CC(C)C)NC(=O)[C@H](CCN)NC1=O)[C@@H](C)O [colistin] 1.13
CC1=C(C(=O)O)N2C(=O)[C@@H](NC(=O)[C@H](N)c3ccc(O)cc3)[C@H]2SC1 [Cefadroxil] + CCC(C)CCCC(=O)N[C@@H](CCN)C(=O)N[C@H](C(=O)N[C@@H](CCN)C(=O)N[C@H]1CCNC(=O)[C@H]([C@@H](C)O)NC(=O)[C@H](CCN)NC(=O)[C@H](CCN)NC(=O)[C@H](CC(C)C)NC(=O)[C@@H](CC(C)C)NC(=O)[C@H](CCN)NC1=O)[C@@H](C)O [colistin] 0.958
